No constants are given. Whether binding was seen depends on the method and setting. In cells and extracts the contact can be indirect. Some binding calls cover weakened binding; strength is not graded here.

By UniProt entry, the sequences of proteins in these tests, tags left out.
UniProt O55242: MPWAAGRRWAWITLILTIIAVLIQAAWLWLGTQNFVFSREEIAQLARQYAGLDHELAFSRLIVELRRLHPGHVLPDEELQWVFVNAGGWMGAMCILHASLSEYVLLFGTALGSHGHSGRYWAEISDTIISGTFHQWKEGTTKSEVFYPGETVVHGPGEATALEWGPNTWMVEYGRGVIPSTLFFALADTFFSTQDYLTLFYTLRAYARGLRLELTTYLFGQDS
UniProt P63074: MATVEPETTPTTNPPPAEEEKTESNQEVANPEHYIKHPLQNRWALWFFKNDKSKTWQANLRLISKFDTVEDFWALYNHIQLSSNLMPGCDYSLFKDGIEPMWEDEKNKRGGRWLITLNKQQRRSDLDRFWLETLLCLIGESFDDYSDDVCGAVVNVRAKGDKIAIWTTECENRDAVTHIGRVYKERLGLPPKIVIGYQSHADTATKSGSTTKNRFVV
UniProt P01100: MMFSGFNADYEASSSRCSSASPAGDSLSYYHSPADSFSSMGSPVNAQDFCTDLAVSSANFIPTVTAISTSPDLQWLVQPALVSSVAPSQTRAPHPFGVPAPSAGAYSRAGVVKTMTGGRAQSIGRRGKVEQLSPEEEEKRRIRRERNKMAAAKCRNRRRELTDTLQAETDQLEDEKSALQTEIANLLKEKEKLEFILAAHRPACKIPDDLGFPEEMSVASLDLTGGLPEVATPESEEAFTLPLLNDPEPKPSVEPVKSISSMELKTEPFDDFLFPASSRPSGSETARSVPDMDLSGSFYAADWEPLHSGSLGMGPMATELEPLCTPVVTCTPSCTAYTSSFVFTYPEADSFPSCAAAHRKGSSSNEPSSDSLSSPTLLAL
UniProt Q9CQS8: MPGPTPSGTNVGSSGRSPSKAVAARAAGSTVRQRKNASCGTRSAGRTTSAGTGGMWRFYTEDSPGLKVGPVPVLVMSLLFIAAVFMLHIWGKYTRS
UniProt Q62622: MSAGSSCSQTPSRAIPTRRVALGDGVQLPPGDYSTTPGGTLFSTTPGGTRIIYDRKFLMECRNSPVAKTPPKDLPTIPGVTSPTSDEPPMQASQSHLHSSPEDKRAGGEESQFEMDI

Test [1] has as its target Sig-1R-GFP (in HEK cells) (UniProt O55242). The test is described as follows: co-IP; HEK cells co-expressing cFOS-Myc/DDK and Sig-1R-GFP; IP lysis buffer (50 mM Tris pH 7.4, 150 mM NaCl, 1% Nonidet P40), protein-A/G agarose beads, 4 °C; precipitating antibody not told.
For test [2], the target named is Sig-1R-GFP (in the cells of Supplementary Figure S2) (UniProt O55242). Nature of the test: co-IP; Supplementary Figure S2: endogenous Sec61β with expressed Sig-1R-GFP; cell line and antibodies not given.
Another test concerns the target Sigma-1R-EYFP (UniProt O55242). The test is described as follows: co-IP; N2a cells overexpressing HA-tagged Sec61β and Sig-1R-EYFP; immunoprecipitation with GFP antibody.
Test [3] deals with eukaryotic initiation factor 4E, endogenous in rat DRG (rat (endogenous in DRG)) (UniProt P63074). Nature of the test: co-IP; lysate of rat L4-L6 DRGs, sham or SNI (day 14), pooled from 2 animals; protein-A/G agarose beads, 4 °C; band intensity normalized to eIF4E.

Consider “cFOS-Myc/DDK (from UniProt P01100 1-380)”, for which, in test [1], the binding result is given as “binds”.

With “endogenous Sec61β (from UniProt Q9CQS8 1-96)”, the binding result in test [2] is on record as “binds”.

For the substance HA-Sec61β (from UniProt Q9CQS8 1-96), the binding result in the test with Sigma-1R-EYFP is given as “binds”.

As for “4E-BP1, endogenous in rat DRG (from UniProt Q62622 1-117)”, the binding result in test [3] was “binds”.

Values taken from PMC8128747.
